From patent US8921569B2, “Rationally improved isoniazid and ethionamide derivatives and activity through selective isotopic substitution” (STC.UNM, priority 2007, dated 2014)
For at least one compound, name, drawing or mass did not settle the structure.

Test system: H37Rv
Assay: MIC experiment, visual analysis of growth of bacilli in 7H9 broth
Type: cell-based, Mycobacterium tuberculosis
[1] = Day 7, drug concentration 0.0125 ug/ml
[2] = Day 14, drug concentration 0.0125 ug/ml

Compound | visual growth of bacilli [1] | visual growth of bacilli [2]
NN[13C](=O)c1ccncc1 [C13 INH, 4-pyridine-[^13C]carboxylic acid hydrazide] | + | +
NNC(=[18O])c1ccncc1 [O18 INH] | + | +
